Measurements: the supplement of paper PMC12067093, “Discovery and optimisation of a covalent ligand for TRIM25 and its application to targeted protein ubiquitination” (Chemical Science, 2025)
This is one part of the list.

Chains of the proteins cited; added tags and fusions are not shown. Lines headed by an entry give the natural chain unless they say otherwise; changes in a name come on top.
UniProt Q08211, whole entry, looked up: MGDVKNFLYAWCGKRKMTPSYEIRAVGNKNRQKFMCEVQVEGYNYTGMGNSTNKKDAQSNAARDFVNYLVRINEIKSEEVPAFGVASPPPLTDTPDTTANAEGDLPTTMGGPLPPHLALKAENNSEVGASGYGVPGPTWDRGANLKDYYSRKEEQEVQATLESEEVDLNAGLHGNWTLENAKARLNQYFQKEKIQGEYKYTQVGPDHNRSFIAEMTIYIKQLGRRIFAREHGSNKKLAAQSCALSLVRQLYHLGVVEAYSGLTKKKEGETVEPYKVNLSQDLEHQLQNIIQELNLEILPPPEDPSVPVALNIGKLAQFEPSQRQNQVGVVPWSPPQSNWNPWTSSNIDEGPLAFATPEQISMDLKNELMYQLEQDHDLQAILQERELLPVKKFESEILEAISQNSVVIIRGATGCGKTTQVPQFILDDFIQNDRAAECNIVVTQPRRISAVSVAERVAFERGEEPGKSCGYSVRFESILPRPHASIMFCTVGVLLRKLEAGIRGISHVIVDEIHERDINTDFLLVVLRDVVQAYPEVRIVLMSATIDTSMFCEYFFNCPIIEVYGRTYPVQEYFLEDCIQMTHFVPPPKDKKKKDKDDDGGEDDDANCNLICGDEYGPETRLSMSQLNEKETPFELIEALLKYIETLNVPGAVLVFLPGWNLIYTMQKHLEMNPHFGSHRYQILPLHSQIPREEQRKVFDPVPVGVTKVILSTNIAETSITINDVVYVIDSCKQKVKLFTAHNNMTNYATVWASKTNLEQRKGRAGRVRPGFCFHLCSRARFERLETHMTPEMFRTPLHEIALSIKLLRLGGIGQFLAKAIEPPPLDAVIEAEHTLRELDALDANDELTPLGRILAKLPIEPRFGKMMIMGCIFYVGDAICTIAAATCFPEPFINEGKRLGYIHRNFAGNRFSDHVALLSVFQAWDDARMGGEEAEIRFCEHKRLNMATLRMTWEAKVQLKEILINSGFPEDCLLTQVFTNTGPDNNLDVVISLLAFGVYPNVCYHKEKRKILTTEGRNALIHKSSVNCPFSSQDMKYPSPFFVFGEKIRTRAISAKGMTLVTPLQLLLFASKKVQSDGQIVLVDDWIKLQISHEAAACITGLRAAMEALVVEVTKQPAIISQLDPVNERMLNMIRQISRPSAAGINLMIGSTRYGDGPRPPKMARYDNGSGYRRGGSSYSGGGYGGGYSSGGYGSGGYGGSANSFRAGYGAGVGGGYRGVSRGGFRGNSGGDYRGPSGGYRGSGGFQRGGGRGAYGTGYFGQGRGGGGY
UniProt P09622, whole entry, looked up: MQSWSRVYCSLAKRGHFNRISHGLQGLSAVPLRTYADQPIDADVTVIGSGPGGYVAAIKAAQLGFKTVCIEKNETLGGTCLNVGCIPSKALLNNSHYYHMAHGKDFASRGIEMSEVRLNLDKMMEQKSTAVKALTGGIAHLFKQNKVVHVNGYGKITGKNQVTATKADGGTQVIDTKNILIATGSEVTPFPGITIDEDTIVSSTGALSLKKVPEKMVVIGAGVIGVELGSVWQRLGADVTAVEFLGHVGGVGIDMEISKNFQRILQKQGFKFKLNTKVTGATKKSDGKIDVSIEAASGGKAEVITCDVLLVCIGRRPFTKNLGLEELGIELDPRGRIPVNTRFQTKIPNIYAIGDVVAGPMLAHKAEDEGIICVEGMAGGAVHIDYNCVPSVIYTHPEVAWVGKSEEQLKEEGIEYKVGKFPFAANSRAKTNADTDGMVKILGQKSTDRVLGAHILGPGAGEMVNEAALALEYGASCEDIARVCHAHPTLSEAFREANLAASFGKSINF
UniProt P26358: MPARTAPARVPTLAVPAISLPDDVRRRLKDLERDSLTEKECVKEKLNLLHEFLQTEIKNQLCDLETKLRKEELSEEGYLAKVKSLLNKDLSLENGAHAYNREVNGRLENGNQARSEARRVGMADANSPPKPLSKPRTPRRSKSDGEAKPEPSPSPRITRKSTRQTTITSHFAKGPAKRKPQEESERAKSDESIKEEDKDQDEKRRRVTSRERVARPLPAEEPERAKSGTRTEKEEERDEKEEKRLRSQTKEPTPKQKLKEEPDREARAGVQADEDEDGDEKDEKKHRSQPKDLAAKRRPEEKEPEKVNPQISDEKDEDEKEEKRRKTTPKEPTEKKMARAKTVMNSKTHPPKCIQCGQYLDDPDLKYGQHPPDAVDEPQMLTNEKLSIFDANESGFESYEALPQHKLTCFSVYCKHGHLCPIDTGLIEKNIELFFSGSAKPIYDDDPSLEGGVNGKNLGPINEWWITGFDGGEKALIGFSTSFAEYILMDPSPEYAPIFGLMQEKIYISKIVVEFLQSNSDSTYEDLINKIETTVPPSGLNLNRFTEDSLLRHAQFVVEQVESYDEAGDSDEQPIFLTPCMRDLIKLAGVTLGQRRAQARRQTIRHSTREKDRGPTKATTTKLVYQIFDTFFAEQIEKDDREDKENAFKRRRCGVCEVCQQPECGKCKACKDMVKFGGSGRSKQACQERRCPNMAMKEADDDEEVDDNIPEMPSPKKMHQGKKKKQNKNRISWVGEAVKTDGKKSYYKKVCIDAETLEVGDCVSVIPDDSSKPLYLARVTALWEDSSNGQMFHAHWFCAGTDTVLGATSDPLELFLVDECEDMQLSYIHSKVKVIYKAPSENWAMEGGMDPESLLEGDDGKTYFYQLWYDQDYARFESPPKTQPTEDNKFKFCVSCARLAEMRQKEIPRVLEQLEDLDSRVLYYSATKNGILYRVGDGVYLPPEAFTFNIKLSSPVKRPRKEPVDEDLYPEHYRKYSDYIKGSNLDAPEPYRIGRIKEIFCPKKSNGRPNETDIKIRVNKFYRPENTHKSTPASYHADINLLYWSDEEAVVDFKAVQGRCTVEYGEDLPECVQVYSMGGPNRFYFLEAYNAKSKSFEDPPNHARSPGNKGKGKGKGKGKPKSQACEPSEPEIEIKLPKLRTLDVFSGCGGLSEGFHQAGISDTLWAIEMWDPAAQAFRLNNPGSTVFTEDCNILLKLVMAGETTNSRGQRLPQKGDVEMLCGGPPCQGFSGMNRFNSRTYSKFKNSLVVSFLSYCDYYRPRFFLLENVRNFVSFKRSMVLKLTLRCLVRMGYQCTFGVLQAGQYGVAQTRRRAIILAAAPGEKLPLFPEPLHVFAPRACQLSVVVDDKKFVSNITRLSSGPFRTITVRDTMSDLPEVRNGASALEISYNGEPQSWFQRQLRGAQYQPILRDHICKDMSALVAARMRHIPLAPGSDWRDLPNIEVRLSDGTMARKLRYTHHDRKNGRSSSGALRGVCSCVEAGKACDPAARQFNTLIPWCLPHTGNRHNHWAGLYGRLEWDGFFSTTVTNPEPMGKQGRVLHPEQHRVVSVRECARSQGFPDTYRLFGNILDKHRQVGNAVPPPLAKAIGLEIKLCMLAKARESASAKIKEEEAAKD
UniProt Q9NXW2: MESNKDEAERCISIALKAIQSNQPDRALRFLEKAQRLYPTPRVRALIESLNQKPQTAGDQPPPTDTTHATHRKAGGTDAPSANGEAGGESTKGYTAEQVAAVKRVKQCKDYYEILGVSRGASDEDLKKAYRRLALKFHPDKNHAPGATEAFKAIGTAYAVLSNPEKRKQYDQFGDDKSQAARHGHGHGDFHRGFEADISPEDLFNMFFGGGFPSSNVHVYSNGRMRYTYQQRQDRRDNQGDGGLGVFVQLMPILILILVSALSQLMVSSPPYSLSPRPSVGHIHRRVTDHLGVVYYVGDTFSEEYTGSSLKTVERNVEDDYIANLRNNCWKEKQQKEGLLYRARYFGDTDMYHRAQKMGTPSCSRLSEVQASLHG
UniProt Q7L2E3: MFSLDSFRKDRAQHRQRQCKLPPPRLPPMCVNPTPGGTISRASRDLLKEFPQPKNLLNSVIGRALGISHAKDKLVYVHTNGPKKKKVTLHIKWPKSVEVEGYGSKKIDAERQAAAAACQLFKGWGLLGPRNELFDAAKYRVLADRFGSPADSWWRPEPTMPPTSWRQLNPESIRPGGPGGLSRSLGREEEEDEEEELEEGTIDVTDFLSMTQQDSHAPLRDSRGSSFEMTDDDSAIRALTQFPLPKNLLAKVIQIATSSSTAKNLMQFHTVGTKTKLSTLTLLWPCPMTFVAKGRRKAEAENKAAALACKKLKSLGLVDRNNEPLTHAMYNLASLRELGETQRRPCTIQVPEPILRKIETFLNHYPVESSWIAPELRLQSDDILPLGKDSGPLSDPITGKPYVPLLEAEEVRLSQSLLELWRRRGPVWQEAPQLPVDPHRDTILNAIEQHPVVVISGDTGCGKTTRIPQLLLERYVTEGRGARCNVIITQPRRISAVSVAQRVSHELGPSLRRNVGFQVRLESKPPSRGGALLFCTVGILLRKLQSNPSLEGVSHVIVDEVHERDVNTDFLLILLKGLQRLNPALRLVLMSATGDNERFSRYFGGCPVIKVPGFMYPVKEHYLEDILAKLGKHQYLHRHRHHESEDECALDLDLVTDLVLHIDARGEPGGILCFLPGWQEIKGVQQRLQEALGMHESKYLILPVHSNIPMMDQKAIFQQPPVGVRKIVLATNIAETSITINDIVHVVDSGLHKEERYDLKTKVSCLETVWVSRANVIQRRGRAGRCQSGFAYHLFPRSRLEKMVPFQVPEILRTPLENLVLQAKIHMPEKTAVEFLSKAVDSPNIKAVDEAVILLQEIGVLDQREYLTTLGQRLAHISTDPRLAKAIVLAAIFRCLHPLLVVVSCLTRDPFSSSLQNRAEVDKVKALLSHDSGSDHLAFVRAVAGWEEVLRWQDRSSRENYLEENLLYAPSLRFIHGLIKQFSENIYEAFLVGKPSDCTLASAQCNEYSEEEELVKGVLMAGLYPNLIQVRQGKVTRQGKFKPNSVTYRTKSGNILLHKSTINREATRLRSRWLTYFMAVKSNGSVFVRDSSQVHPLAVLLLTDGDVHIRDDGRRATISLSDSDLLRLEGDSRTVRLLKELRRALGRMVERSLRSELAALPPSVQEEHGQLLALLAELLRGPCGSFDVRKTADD
UniProt Q9H2U1: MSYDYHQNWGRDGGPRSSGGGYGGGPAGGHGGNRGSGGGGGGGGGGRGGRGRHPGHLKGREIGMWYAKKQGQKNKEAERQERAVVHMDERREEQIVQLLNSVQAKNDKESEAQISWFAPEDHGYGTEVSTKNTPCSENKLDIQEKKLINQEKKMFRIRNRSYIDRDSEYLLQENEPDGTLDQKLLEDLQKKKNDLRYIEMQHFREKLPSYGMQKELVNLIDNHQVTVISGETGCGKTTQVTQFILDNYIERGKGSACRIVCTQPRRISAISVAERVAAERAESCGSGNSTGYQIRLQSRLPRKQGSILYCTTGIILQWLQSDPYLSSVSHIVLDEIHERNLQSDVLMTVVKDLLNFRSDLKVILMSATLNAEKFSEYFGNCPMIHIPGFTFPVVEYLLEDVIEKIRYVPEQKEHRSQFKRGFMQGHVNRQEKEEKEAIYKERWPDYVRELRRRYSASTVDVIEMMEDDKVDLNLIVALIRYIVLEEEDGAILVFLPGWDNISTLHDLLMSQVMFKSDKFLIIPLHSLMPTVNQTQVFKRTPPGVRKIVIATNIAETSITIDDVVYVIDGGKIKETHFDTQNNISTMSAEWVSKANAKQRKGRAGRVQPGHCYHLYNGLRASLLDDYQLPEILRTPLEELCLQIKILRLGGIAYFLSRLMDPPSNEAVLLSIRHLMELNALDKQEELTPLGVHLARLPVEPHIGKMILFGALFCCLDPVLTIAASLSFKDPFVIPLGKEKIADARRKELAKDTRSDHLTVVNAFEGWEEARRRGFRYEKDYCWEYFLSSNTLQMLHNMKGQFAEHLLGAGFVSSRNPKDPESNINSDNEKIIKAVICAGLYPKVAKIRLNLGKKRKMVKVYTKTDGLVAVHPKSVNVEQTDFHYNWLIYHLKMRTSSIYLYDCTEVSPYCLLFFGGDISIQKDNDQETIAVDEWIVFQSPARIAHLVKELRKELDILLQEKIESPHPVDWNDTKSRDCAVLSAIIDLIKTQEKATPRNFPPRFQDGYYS
UniProt Q99615: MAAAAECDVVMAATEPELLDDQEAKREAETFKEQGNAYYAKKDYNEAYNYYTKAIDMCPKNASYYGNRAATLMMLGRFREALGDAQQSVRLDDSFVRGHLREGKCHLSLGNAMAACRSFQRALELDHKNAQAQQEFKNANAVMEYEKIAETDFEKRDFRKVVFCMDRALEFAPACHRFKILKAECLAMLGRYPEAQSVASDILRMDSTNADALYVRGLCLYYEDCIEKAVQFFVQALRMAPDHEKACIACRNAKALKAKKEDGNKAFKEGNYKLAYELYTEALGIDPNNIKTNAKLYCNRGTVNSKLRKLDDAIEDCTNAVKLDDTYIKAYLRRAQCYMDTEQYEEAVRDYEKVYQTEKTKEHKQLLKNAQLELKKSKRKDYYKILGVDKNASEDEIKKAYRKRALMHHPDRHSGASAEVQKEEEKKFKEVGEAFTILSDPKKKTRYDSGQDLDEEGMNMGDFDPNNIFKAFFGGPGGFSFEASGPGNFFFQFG

Compound: Cc1cc(ccc1-c1ccccc1)C(=O)N1CCCN(CC1)C(=O)CCl [compound 10]
Assay: probe-labelled cysteine peptide fold change vs DMSO (competition) (log2 fold change); higher = less target engagement (more negative = stronger competition)
Conditions: THP-1, incubation time: 4 h
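Note: competitive profiling in live THP-1 cells: cysteine peptides tagged with an iodoacetamide desthiobiotin (IA-DTB) probe, intensity after compound treatment relative to DMSO-treated cells.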

With “DIS3_Q9Y2L1_474+476_HLCICSVDPPGCTDIDDALHCR (UniProt Q9Y2L1)” the “probe-labelled cysteine peptide fold change” value (10 µM) was -0.0376 and the “probe-labelled cysteine peptide fold change” value (50 µM) was -0.285.

In the case of “DHX9_Q08211_773+777_VRPGFCFHLCSR (UniProt Q08211)”, the “probe-labelled cysteine peptide fold change” value (10 µM) is reported as -0.269 and the “probe-labelled cysteine peptide fold change” value (50 µM) is reported as -0.13.

In the case of “DHX15_O43143_307_FQIYFDNCPLLTIPGR (UniProt O43143)”, the “probe-labelled cysteine peptide fold change” value (10 µM) is reported as 0.0607 and the “probe-labelled cysteine peptide fold change” value (50 µM) is reported as 0.479.

With “DLD_P09622_484_VCHAHPTLSEAFR (UniProt P09622)” the “probe-labelled cysteine peptide fold change” value (10 µM) was 0.032 and the “probe-labelled cysteine peptide fold change” value (50 µM) was 0.0897.

In the case of “DNMT1_P26358_353_CIQCGQYLDDPDLK (UniProt P26358)”, the “probe-labelled cysteine peptide fold change” value (10 µM) is reported as -0.0416 and the “probe-labelled cysteine peptide fold change” value (50 µM) is reported as -0.155.

For “DHX9_Q08211_608+612_KDKDDDGGEDDDANCNLICGDEYGPETR (UniProt Q08211)”, the “probe-labelled cysteine peptide fold change” value (10 µM) was -0.761 and the “probe-labelled cysteine peptide fold change” value (50 µM) was -0.243.

For “DHRS9_Q9BPW9_60_GFHVIAACLTESGSTALK (UniProt Q9BPW9)”, the “probe-labelled cysteine peptide fold change” value (10 µM) was 0.185 and the “probe-labelled cysteine peptide fold change” value (50 µM) was 0.3.

With “DMXL1_Q9Y485_551_SIMMYACTK (UniProt Q9Y485)” the “probe-labelled cysteine peptide fold change” value (10 µM) was -0.0984 and the “probe-labelled cysteine peptide fold change” value (50 µM) was -0.789.

With “DNAJB12_Q9NXW2_363_MGTPSCSR (UniProt Q9NXW2)” the “probe-labelled cysteine peptide fold change” value (10 µM) was -0.312 and the “probe-labelled cysteine peptide fold change” value (50 µM) was -0.0693.

With “DNAJC10_Q8IXB1_301_LSGMLDGLVNVGWMDCATQDNLCK (UniProt Q8IXB1)” the “probe-labelled cysteine peptide fold change” value (10 µM) was -0.0309 and the “probe-labelled cysteine peptide fold change” value (50 µM) was 0.0968.

With “DHX30_Q7L2E3_786_CQSGFAYHLFPR (UniProt Q7L2E3)” the “probe-labelled cysteine peptide fold change” value (10 µM) was -0.0274 and the “probe-labelled cysteine peptide fold change” value (50 µM) was 0.051.

“DNMT1_P26358_1476+1478_GVCSCVEAGK (UniProt P26358)” was tested, and the “probe-labelled cysteine peptide fold change” value (10 µM) was -1.56 and the “probe-labelled cysteine peptide fold change” value (50 µM) was less than -5.

In the case of “DHX36_Q9H2U1_284_AESCGSGNSTGYQIR (UniProt Q9H2U1)”, the “probe-labelled cysteine peptide fold change” value (10 µM) is reported as -0.0931 and the “probe-labelled cysteine peptide fold change” value (50 µM) is reported as -0.0293.

In the case of “DNAJC7_Q99615_58_AIDMCPK (UniProt Q99615)”, the “probe-labelled cysteine peptide fold change” value (10 µM) is reported as 0.162 and the “probe-labelled cysteine peptide fold change” value (50 µM) is reported as 0.0415.
